The data set can be described thus: Odor reduction of municipal sludge, headspace GC-MS and odor. The conditions noted are these: for Notes (odor): 60.0° C.; for Peak area for line 94 at retention time of 1.93 and 1.74 minutes: second series, 5.00 g sludge no dilution, 0.5 ml or 0.5 g addition. The procedure:
Effectiveness of the treatments was evaluated through the GC-MS analysis of the treated and untreated sludge. Sludge (5.0 g) was placed into a 44 ml vial. After heating to 60.0° C. for 5.0 minutes a probe of gas was taken from the vial (0.5 ml) and injected into the GC-MS.
Hewlett-Packard (HP) GC 5890 coupled with an HP 5971 mass-spectrometer. The system incorporates an electron beam as an ion source. Ions are filtered through a glass with silver-coated quadruples.
A DB5MS capillary chromatographic column is used and the MS is tuned with PFTBA in a Scan Mode (tune file: BFB.U).
For further characterization the peak area of the 94-ion was selected. The calibration was performed using dimethyldisulfide. A calibration curve is presented in the attached data.
In the first series, 6.00 g (±0.05) of the sludge with the addition of 10.0 ml of distilled water was used. For the treatment, we used potential oxidizers such as KNO3 and H2SO4 in different combinations.
In the second series we used 5.00 g (±0.01) of the sludge with no dilution. For the treatment we used additions of hydrogen peroxide (30%) −0.5 ml, sulfuric acid (98%), −0.5 ml, a combination of hydrogen peroxide and 0.5 ml and sulfuric acid 0. ml, ammonia (54%) −0.5ml, calcium hypochlorite −0.5 g.
The effectiveness of the additions is evaluated through decreasing the area of 94-ion signal with retention time around 1.94 minutes. We also investigated the influence of time.
The samples of the sludge (approximately 5.0 g) were placed into the vials and treated with additions of CaOCl2 at a temperature of 60.0° C.
The reproducibility of the treatment with calcium hypochlorite Ca(OCl)2 (CHC) on sludge was investigated. In all experiments, 5.0 g of sludge in a special vial was treated with an addition of percent of weight of odor reducer (0.05 g). After heating to 60.0° C. for 5.0 minutes, a sample of vapor over the sludge was taken and injected into the GC/MS. Total Ion Chromatograph signal with retention time […] were used for evaluation of the treatment corresponding to dimethylsulfide).

`[Ca+2].[O-]Cl.[O-]Cl` [CaOCl2, calcium hypochlorite]: the “lowest effective concentration for eliminating the odor (Phase III)” value turned out to be 0.5 % weight; the “Peak area for line 94 at retention time of 1.93 and 1.74 minutes” value is 4,860 integration units (IU). In addition, the “dimethyldisulfide content after addition” value (0.5% weight, from 3.5 ug/L) was in the range of 0.5 to 0.6 µg/L. For the same compound, the “Notes (odor)” value (5.0025 g sludge, 0.0513 g CaOCl2, 5 min) is “No Odor”. Also, for the setting “5.0716 g sludge, 0.0248 g CaOCl2, 10 min”, the “Notes (odor)” value was “Odor”. Where the note is “5.0776 g sludge, 0.0256 g CaOCl2, 5 min”, the “Notes (odor)” value was “Odor”. Besides, the “Notes (odor)” value (5.0803 g sludge, 0.0257 g CaOCl2, 2 min) is “Odor”. For the same compound, the “amount needed for odor elimination (Phase II conclusion)” value (60° C., 5.0 minutes) is 1.0%.

Regarding `O=S(=O)(O)O` [Trial H2SO4, sulfuric acid], the “Peak area for line 94 at retention time of 1.93 and 1.74 minutes” value is reported as 8,400 integration units (IU).
